Hit rate of the full screen: of about 330,000 compounds, about 7,700 (2.3%) were called active. Inconclusive results, whose numbers are uncertain, are shown with a selection of clear calls. The call rests on the fitted dose curve; in most records, active means well fitted inhibition curve with a large enough effect; inconclusive means small, poorly fitted or top-dose-only effect, or effect the other way; inactive means flat fitted curve, though single readings scatter. Potencies beside an inconclusive call are fits to weak or partial responses and may not hold up.
Test: qHTS screen for small molecules that inhibit ELG1-dependent DNA repair in human embryonic kidney (HEK293T) cells expressing luciferase-tagged ELG1; further: nearly all actives have a fitted effect of over 55% in size
Settings: HEK293T ELG1-luciferase reporter, luminescence, 16 h, DNA damage induced by 5-fluorouridine; series mostly up to 46.1 µM
Method in brief: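 Overnight (16 hr) co-exposure of 2,000 cells/well to 5-fluorouridine and compound at 37 °C preceded detection. Luciferase was quantified via ONE-Glo luminescence; loss of signal denotes inhibition.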
Potency means the concentration at half of the fitted maximal effect.

Row | SMILES | Potency
1 | COc1ccc(N(C(=O)c2ccc(Br)o2)C2C=CS(=O)(=O)C2)c(OC)c1 (stereo not drawn) | inconclusive: 25.9 µM [inhibitor, single point]
2 | CCOc1ccc(-c2cc(C(=O)OC)nc3c2c(=O)n(C)c(=O)n3C)cc1 | inactive
3 | CCCCNc1ccc2c3c(cccc13)C(=O)N(CCCC)C2=O | inconclusive: 18.3 µM [inhibitor, single point]
4 | Cc1c(Br)c([N+](=O)[O-])nn1CC(=O)N1CCN(C23CC4CC(CC(C4)C2)C3)CC1 | inactive
5 | CC(=O)/C(N=Nc1cc2c(cc1[N+](=O)[O-])OCCO2)=C(\C)O | inactive
6 | CCCCc1nc(NCCNC(=O)c2ccco2)c(C#N)c2c1CSC(C)(C)C2 | active: 14.6 µM
7 | COc1ccc2c(CC(=O)Nc3cccc(S(=O)(=O)N4CCOCC4)c3)coc2c1 | inconclusive: 36.6 µM [inhibitor, partial curve, poor fit]
8 | COc1ccc(-c2[nH]c(-c3ccc(F)cc3)nc2SCC(=O)NCc2ccco2)cc1OC | active: 18.4 µM
9 | COc1cccc(NS(=O)(=O)c2ccc3c(c2)CCN3C(C)=O)c1 | active: 2.06 µM
10 | C#CCOCCOCCOCCNc1nc(N2CCN(C(=O)[C@H](CCCN=C(N)N)n3cc(C(N)[C@@H](C)CC)nn3)CC2)nc(N2CCN(C(=O)[C@H](CC(N)=O)n3cc([C@@H](N)CC(N)=O)nn3)CC2)n1 (stereo partly drawn) | inconclusive: 23.1 µM [activator, single point]
11 | CCOC(=O)C1CCN(S(=O)(=O)c2ccc(-c3ccccn3)s2)CC1 | inconclusive: 23.1 µM [inhibitor, single point]
12 | O/N=C1\CCCCc2ccccc21 | inconclusive: 23.1 µM [activator, partial curve, poor fit]
13 | CCOC(=O)c1[nH]cnc1C(=O)Nc1ccccc1 | inactive
14 | COc1ccc(C)cc1NC(=O)c1cnc2n(c1=O)CCS2 | inconclusive: 16.4 µM [activator, partial curve]
15 | CCc1ccc(/C=N/NC(=O)c2cc(-c3ccncc3)nc3ccccc23)s1 | inconclusive: 23.1 µM [inhibitor, partial curve, poor fit]
16 | CC(C)c1cc(C(=O)Nc2cccnc2)no1 | inconclusive: 4.61 µM [activator, partial curve]
17 | Cc1csc(NC(=O)c2ccc(C)c(S(=O)(=O)N3CCCCC3)c2)n1 | inconclusive: 25.9 µM [inhibitor, partial curve, poor fit]
18 | Cc1ccc(CCNC(=O)C2CCN(S(=O)(=O)N3CCOCC3)CC2)cc1 | inactive
19 | C=CCC[C@H](Cc1ccc(F)cc1)C(=O)OC[C@H](Cc1c[nH]c2ccccc12)NC(=O)[C@H](CC=C)CC(=O)N(CCO)Cc1ccccc1 | active: 20.6 µM
20 | Cc1onc(-c2ccccc2Cl)c1C(=O)OCC(=O)Nc1cccc(S(=O)(=O)N2CCOCC2)c1 | inconclusive: 16.4 µM [inhibitor, single point]
21 | O=C(Nc1ccc(Cl)cc1)c1csc(-c2ccncc2)n1 | inconclusive: 20.6 µM [inhibitor, partial curve, poor fit]
22 | COC(=O)c1ccc(OCCn2cnc3ccccc3c2=O)cc1 | inconclusive: 12.6 µM [activator, partial curve]
23 | CCOc1ccccc1NC(=O)CCSc1nc2n[nH]c(C)c2c(=N)n1-c1ccccc1Cl | active: 3.16 µM

Row | SMILES | Potency
24 | Cc1ccnc2nc(C(=O)Nc3ccc4c(c3)OCO4)nn12 | inconclusive: 18.4 µM [activator, partial curve]
25 | Cc1c(Cl)cccc1NC(=O)CSc1ncnc2c1cnn2CCc1ccccc1 | inactive
26 | COc1ccccc1NC(=O)C(C)OC(=O)CCNS(=O)(=O)c1ccc(C)c(C)c1 (stereo not drawn) | inactive
27 | O=C(COC(=O)c1ccc2[nH]c3c(c2c1)CCCC3)NC1CCS(=O)(=O)C1 (stereo not drawn) | inconclusive: 18.3 µM [inhibitor, single point]
28 | O=C(Nc1cccc(Cl)c1)N1CCN2C(=O)c3ccccc3C12c1ccccc1 (stereo not drawn) | inconclusive: 6.51 µM [inhibitor, partial curve, poor fit]
29 | COc1ccc(NC(=O)c2cccc(NC(=O)c3ccccc3)c2)cc1 | inactive
30 | CCC1(CC)C(=O)NN(c2ccccc2)C1=O | inconclusive: 16.4 µM [activator, partial curve, poor fit]
31 | O=c1c(-c2ccccc2)coc2c(CN3CCCCC3)c(O)ccc12 | inactive
32 | COc1cccc(/C=N/NC(=O)CC(=O)NCCc2ccccc2)c1OC | inactive
33 | O=C(NCCc1ccco1)c1ccc(OCc2cn3ccccc3n2)cc1 | inconclusive: 20.6 µM [activator, partial curve]
34 | O=C(N/N=C/c1ccc(O)c(O)c1)c1ccc(CSc2cccc3cccnc23)cc1 | inactive
35 | Cc1c(Cl)cccc1NC(=S)NCCc1ccc(S(N)(=O)=O)cc1 | inactive
36 | CCOCC(=O)Nc1ccc(S(=O)(=O)N2CCC(c3nc4ccccc4[nH]3)CC2)cc1 | inconclusive: 11.6 µM [inhibitor, partial curve]
37 | COCC(C)n1c(SCC(=O)c2cc(C)n(C)c2C)nc2ccccc2c1=O (stereo not drawn) | inconclusive: 23.1 µM [inhibitor, single point]
38 | COc1cc2c(cc1NC(=O)Nc1ccc(C)cc1)oc1ccccc12 | inconclusive: 7.31 µM [activator, partial curve, poor fit]
39 | COc1ccc(N2CCN(C(=O)c3cccc4nc(C)oc34)CC2)cc1 | inconclusive: 18.3 µM [inhibitor, partial curve, poor fit]
40 | Cc1noc(C)c1COc1ccc(C(=O)NCc2ccccn2)cc1 | inconclusive: 29.1 µM [activator, single point]
41 | CCOC(=O)c1cnn(CC2CCCCC2)c1N | inconclusive: 29.1 µM [activator, single point]
42 | NC(=O)NC(=O)CSc1nc2cc([N+](=O)[O-])ccc2n1-c1cccc(C(F)(F)F)c1 | inconclusive: 16.4 µM [inhibitor, partial curve, poor fit]
43 | CSC1=NNC(c2ccc(C(C)(C)C)cc2)=NN1 | inconclusive: 29.1 µM [activator, single point]
44 | O=C(c1ccccc1-c1nc(-c2ccc(F)cc2)no1)N1CCCC1 | inactive
45 | CCCCCCCOC(=O)c1ccc(OC(=O)c2cccnc2)cc1 | inconclusive: 23.1 µM [activator, single point]
46 | Cc1ccccc1CN1N=C(/C=C/c2ccccc2)CCC1=O | inconclusive: 23.1 µM [inhibitor, single point]

Row | SMILES | Potency
47 | CCC1CCC(c2nnc(-c3ccc([N+](=O)[O-])cc3)o2)CC1 (stereo not drawn) | inconclusive: 14.6 µM [activator, single point]
48 | Cc1cccnc1NC(=O)CCc1nnc2ccc(N3CCC4(CC3)OCCO4)nn12 | inactive
49 | COc1ccc(O)c(/C=N/NC(=O)CCC(=O)Nc2ccc(F)cc2)c1 | inactive
50 | COc1ccccc1NC(=S)N(Cc1cccnc1)Cc1ccco1 | inactive
51 | NC(=O)c1nsc(C(=O)N(Cc2ccco2)C(C(=O)NCC2CCCO2)c2ccc(O)cc2)c1N (stereo not drawn) | inconclusive: 20.6 µM [inhibitor, single point]
52 | CNc1nc(-c2ccc3c(c2)CCN3S(=O)(=O)c2ccccc2)c(C)s1 | inconclusive: 14.6 µM [inhibitor, partial curve]
53 | O=C(NCC12CC3CC(CC(C3)C1)C2)c1nn2c(c1Cl)NC(c1ccco1)CC2C(F)(F)F (stereo not drawn) | inconclusive: 29.1 µM [inhibitor, single point]
54 | Cc1onc(-c2c(Cl)cccc2Cl)c1NC(=O)NNc1ccccc1 | inconclusive: 8.2 µM [inhibitor, partial curve]
55 | CCOc1ccc(C(=O)Nc2ccc(N3CCN(C)CC3)cc2)cc1Br | inconclusive: 8.91 µM [activator, partial curve, poor fit]
56 | O=C(CCS(=O)(=O)c1ccc(Br)cc1)N1CCN(c2ccccc2)CC1 | inactive
57 | O=C(N/N=C/c1ccco1)c1csc2c1CCCC2 | inconclusive: 7.3 µM [activator, partial curve]
58 | C[C@@H](NC(=O)c1nc[nH]c1C(=O)N[C@@H](Cc1ccccc1)C(=O)OCc1ccccc1)c1ccccc1 | inactive
59 | COc1ccc(-c2csc(NC(=O)c3ccccc3NS(=O)(=O)c3ccc(F)c(F)c3)n2)cc1 | inconclusive: 1.64 µM [inhibitor, partial curve]
60 | CCOC(=O)C1CCN(C(=O)Cn2nc(C)c3c(C)n(-c4ccccc4)nc3c2=O)CC1 | inactive
61 | CCOc1ccc(S(=O)(=O)N(CC)CC)cc1NC(=O)c1ccc(N2CCCC2=O)cc1 | inactive
62 | O=C(Nc1ccc(F)cc1)N1CCN(c2ccc3nnc(-c4ccc(F)cc4)n3n2)CC1 | active: 7.31 µM
63 | Cc1sc(N2C(=O)C3C(C2=O)[C@H]2C=C[C@@H]3C2)c(C#N)c1C (stereo partly drawn) | inconclusive: 29.1 µM [activator, single point]
64 | CN(CC(=O)Nc1ccc(F)c(F)c1F)c1cnccn1 | inconclusive: 29.1 µM [inhibitor, single point]
65 | O=C(NC1CCCCCC1)c1ccc(-n2cnnc2)cc1 | inconclusive: 32.6 µM [activator, partial curve, poor fit]
66 | c1ccc2sc(NN=C3CCCC3)nc2c1 | inconclusive: 2.31 µM [activator, partial curve]
67 | COc1ccc(N=Nc2ccc(N)nc2N)cc1 | inconclusive: 9.2 µM [activator, partial curve]
68 | C/C(=N\N1CCN(Cc2ccccc2)CC1)c1ccco1 | inconclusive: 18.3 µM [activator, single point]
